Record: PubChem BioAssay AID1671195 (Yale University, 2021)
In all, the deposit lists about 22,000 reagents; shown is a part drawn at random. In the full data, about 1,510 (6.9%) were called active. 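Active includes knockdowns raising or lowering LDL uptake; positive z-scores mean more uptake, negative mean less.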 Entries without a mark were called inactive. No sequences are given here.

- Assay: 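Regulators of LDL receptor activity judged by labelled LDL uptake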 (primary screen)
- Cells: human Huh7 hepatoma cells
- Knock-down reagent: siRNA pool against human genes, 18 nM
- Timing: about 2 to 2.5 days of knockdown, then 8 h LDL uptake
- Conditions: DiI-labelled LDL at 30 µg/ml for 8 h, in lipoprotein-deficient serum medium
- Detection: 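Per-cell DiI-LDL intensity by automated imaging; well means scaled to the plate median and given as a robust z-score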
- Scale: robust z-score: higher = more LDL uptake after knockdown
- Active means: 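Active when two or more replicates show a robust z-score above 2 or below -2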

| Target gene | robust z-score, replicate 1 | robust z-score, replicate 2 | robust z-score, replicate 3 |
| --- | --- | --- | --- |
| OR4K14 | -0.754 | -0.691 | -0.948 |
| ARHGAP1 | -0.469 | -0.455 | -0.405 |
| NPR2 | -0.955 | 0.337 | -0.546 |
| TSACC | 0.248 | -0.225 | 0.394 |
| KDM4C | 7.51 (active) | 6.82 | 7.67 |
| AKR1C4 | -1.4 | -1.19 | -1.96 |
| DNMT1 | -0.0594 | 2.12 | 0.029 |
| CABP1 | 1.68 | 1.72 | 2 |
| GHRH | -0.365 | 1.13 | -0.0673 |
| RNF7 | -0.126 | -0.534 | 0.23 |
| C2orf15 | 1.4 | 0.259 | 0.792 |
| CCT8L2 | -0.334 | -0.576 | -1.08 |
| SELENOW | 0.184 | 0.378 | -0.674 |
| SLC10A7 | -0.438 | -0.319 | -0.592 |
| SMPD3 | 1.27 | 0.597 | 0.339 |
| LAMP2 | 0.455 | 0.423 | 0.266 |
| BDH2 | -0.261 | -0.252 | -0.182 |
| EMP1 | 0.258 | 1.16 | 1.1 |
| DDX50 | -0.82 | 0.43 | 0.478 |
| ADAP1 | 0.0854 | -0.0528 | -0.0754 |
| USP9X | 0.339 | -0.614 | 0.453 |
| PAPSS2 | -0.376 | -0.76 | -1.11 |
| ABCB11 | 0.609 | -1.68 | 0.164 |
| DIAPH1 | -0.607 | -0.0237 | -1.87 |
| ANAPC1P2 | 0.66 | 0.461 | 0.179 |
| MYO1C | 0.512 | 1.64 | 0.385 |
| CCND3 | 0.369 | 0.257 | 0.139 |
| ARHGAP30 | -0.768 | -0.167 | -0.47 |
| GIPC3 | -2.46 (active) | -2.43 | -2.52 |
| SEC22C | 1.5 | 0.358 | 1.45 |
| NEK8 | 0.117 | -0.44 | -0.605 |
| HARS2 | -1.29 | -0.62 | -0.37 |
| ZNF484 | 0.929 | 1.06 | 0.977 |
| NUAK2 | 2.12 | 1.03 | 1.89 |
| VPS4A | -0.516 | -0.0112 | -0.517 |
| KLK2 | 0.112 | -0.154 | 0.133 |
| PAIP2B | -0.587 | -0.995 | -0.737 |
| ARAP1 | 0.406 | 0.154 | 0.548 |
| DCLK1 | 1.34 | -0.229 | 0.298 |
| KCNK2 | 0.715 | 0.0781 | 0.922 |
| ISM2 | -0.787 | -1.14 | -1.09 |
| TAFA5 | 1.18 | -0.293 | 1.85 |
| FGF1 | 0.346 | 0.136 | 0.0197 |
| ANKZF1 | -1.62 | -0.547 | -1.52 |
| SEC22B | 0.232 | 1.09 | 0.743 |
| LOC440283 (retired record) | -0.694 | -0.4 | -0.305 |

7 entries from above, reduced to “robust z-score, replicate 2”:
GHRH = 1.13
RNF7 = -0.534
C2orf15 = 0.259
CCT8L2 = -0.576
SELENOW = 0.378
SLC10A7 = -0.319
SMPD3 = 0.597
